# Source: PMC11193767
# Chains of the proteins cited; added tags and fusions are not shown.
# UniProt Q8IWT6: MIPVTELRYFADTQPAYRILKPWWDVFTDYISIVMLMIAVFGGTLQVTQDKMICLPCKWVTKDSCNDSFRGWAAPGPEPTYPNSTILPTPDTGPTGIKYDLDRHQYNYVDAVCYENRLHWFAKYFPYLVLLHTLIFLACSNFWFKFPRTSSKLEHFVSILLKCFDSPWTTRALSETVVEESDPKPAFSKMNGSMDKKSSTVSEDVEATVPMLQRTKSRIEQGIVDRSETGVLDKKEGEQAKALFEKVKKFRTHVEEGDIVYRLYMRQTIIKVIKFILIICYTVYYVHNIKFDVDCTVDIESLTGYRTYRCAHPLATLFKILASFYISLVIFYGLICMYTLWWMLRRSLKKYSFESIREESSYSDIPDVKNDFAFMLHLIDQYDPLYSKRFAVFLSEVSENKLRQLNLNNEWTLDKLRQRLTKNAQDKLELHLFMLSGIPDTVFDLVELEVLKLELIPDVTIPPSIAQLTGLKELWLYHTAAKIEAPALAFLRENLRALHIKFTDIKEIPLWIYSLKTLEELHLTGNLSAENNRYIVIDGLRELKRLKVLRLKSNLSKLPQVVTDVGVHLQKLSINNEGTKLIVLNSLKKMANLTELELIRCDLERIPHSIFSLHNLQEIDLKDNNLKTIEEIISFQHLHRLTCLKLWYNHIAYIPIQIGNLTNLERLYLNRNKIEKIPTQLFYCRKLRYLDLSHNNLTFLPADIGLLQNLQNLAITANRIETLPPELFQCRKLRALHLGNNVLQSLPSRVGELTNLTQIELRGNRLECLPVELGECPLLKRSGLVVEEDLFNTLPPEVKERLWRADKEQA
# No constants are given. Whether binding was seen depends on the method and setting. Binding seen in cells or lysates may run through a third protein. Here binding means that the protein was enriched with, or labelled near, the bait; the list need not be complete.
# B1: Large subunit GTPase 1 homolog (protein, UniProt Q9H089 1-658)
# chain: MGRRRAPAGGSLGRALMRHQTQRSRSHRHTDSWLHTSELNDGYDWGRLNLQSVTEQSSLDDFLATAELAGTEFVAEKLNIKFVPAEARTGLLSFEESQRIKKLHEENKQFLCIPRRPNWNQNTTPEELKQAEKDNFLEWRRQLVRLEEEQKLILTPFERNLDFWRQLWRVIERSDIVVQIVDARNPLLFRCEDLECYVKEMDANKENVILINKADLLTAEQRSAWAMYFEKEDVKVIFWSALAGAIPLNGDSEEEANRDDRQSNTTKFGHSSFDQAEISHSESEHLPARDSPSLSENPTTDEDDSEYEDCPEEEEDDWQTCSEEDGPKEEDCSQDWKESSTADSEARSRKTPQKRQIHNFSHLVSKQELLELFKELHTGRKVKDGQLTVGLVGYPNVGKSSTINTIMGNKKVSVSATPGHTKHFQTLYVEPGLCLCDCPGLVMPSFVSTKAEMTCSGILPIDQMRDHVPPVSLVCQNIPRHVLEATYGINIITPREDEDPHRPPTSEELLTAYGYMRGFMTAHGQPDQPRSARYILKDYVSGKLLYCHPPPGRDPVTFQHQHQRLLENKMNSDEIKMQLGRNKKAKQIENIVDKTFFHQENVRALTKGVQAVMGYKPGSGVVTASTASSENGAGKPWKKHGNRNKKEKSRRLYKHLDM
# B2: Insulin receptor substrate 2 (protein, UniProt Q9Y4H2 1-1338)
# chain: MASPPRHGPPGPASGDGPNLNNNNNNNNHSVRKCGYLRKQKHGHKRFFVLRGPGAGGDEATAGGGSAPQPPRLEYYESEKKWRSKAGAPKRVIALDCCLNINKRADAKHKYLIALYTKDEYFAVAAENEQEQEGWYRALTDLVSEGRAAAGDAPPAAAPAASCSASLPGALGGSAGAAGAEDSYGLVAPATAAYREVWQVNLKPKGLGQSKNLTGVYRLCLSARTIGFVKLNCEQPSVTLQLMNIRRCGHSDSFFFIEVGRSAVTGPGELWMQADDSVVAQNIHETILEAMKALKELFEFRPRSKSQSSGSSATHPISVPGARRHHHLVNLPPSQTGLVRRSRTDSLAATPPAAKCSSCRVRTASEGDGGAAAGAAAAGARPVSVAGSPLSPGPVRAPLSRSHTLSGGCGGRGSKVALLPAGGALQHSRSMSMPVAHSPPAATSPGSLSSSSGHGSGSYPPPPGPHPPLPHPLHHGPGQRPSSGSASASGSPSDPGFMSLDEYGSSPGDLRAFCSHRSNTPESIAETPPARDGGGGGEFYGYMTMDRPLSHCGRSYRRVSGDAAQDLDRGLRKRTYSLTTPARQRPVPQPSSASLDEYTLMRATFSGSAGRLCPSCPASSPKVAYHPYPEDYGDIEIGSHRSSSSNLGADDGYMPMTPGAALAGSGSGSCRSDDYMPMSPASVSAPKQILQPRAAAAAAAAVPSAGPAGPAPTSAAGRTFPASGGGYKASSPAESSPEDSGYMRMWCGSKLSMEHADGKLLPNGDYLNVSPSDAVTTGTPPDFFSAALHPGGEPLRGVPGCCYSSLPRSYKAPYTCGGDSDQYVLMSSPVGRILEEERLEPQATPGPSQAASAFGAGPTQPPHPVVPSPVRPSGGRPEGFLGQRGRAVRPTRLSLEGLPSLPSMHEYPLPPEPKSPGEYINIDFGEPGARLSPPAPPLLASAASSSSLLSASSPASSLGSGTPGTSSDSRQRSPLSDYMNLDFSSPKSPKPGAPSGHPVGSLDGLLSPEASSPYPPLPPRPSASPSSSLQPPPPPPAPGELYRLPPASAVATAQGPGAASSLSSDTGDNGDYTEMAFGVAATPPQPIAAPPKPEAARVASPTSGVKRLSLMEQVSGVEAFLQASQPPDPHRGAKVIRADPQGGRRRHSSETFSSTTTVTPVSPSFAHNPKRHNSASVENVSLRKSSEGGVGVGPGGGDEPPTSPRQLQPAPPLAPQGRPWTPGQPGGLVGCPGSGGSPMRRETSAGFQNGLNYIAIDVREEPGLPPQPQPPPPPLPQPGDKSSWGRTRSLGGLISAVGVGSTGGGCGGPGPGALPPANTYASIDFLSHHLKEATIVKE
# B3: Lethal(2) giant larvae protein homolog 1 (protein, UniProt Q15334 1-1064)
# chain: MMKFRFRRQGADPQREKLKQELFAFNKTVEHGFPNQPSALAFDPELRIMAIGTRSGAVKIYGAPGVEFTGLHRDAATVTQMHFLTGQGRLLSLLDDSSLHLWEIVHHNGCAHLEEALSFQLPSRPGFDGASAPLSLTRVTVVLLVAASDIAALGTEGSSVFFLDVTTLTLLEGQTLAPGEVLRSVPDDYRCGKALGPVESLQGHLRDPTKILIGYSRGLLVIWNQASQCVDHIFLGNQQLESLCWGRDSSTVVSSHSDGSYAVWSVDAGSFPTLQPTVATTPYGPFPCKAINKILWRNCESGGHFIIFSGGMPRASYGDRHCVSVLRAETLVTLDFTSRIIDFFTVHSTRPEDEFDDPQALAVLLEEELVVLDLQTPGWPAVPAPYLAPLHSSAITCSAHVASVPAKLWARIVSAGEQQSPQPVSSALSWPITGGRNLAQEPSQRGLLLTGHEDGTVRFWDASGVALRPLYKLSTAGLFQTDCEHADSLAQAAEDDWPPFRKVGCFDPYSDDPRLGVQKVALCKYTAQMVVAGTAGQVLVLELSDVPVEQAVSVAIIDLLQDREGFTWKGHERLSPRTGPLPWPAGFQPRVLVQCLPPAAVTAVTLHTEWSLVAFGTSHGFGLFDYQRKSPVLARCTLHPNDSLAMEGPLSRVKSLKKSLRQSFRRIRKSRVSGKKRAANASSKLQEANAQLAEQACPHDVEMTPVQRRIEPRSADDSLSGVVRCLYFADTFLRDGAHHGPTMWAGTNSGSVFAYALEVPAAAVGGEKRPEQAVEAVLGKEVQLMHRAPVVAIAVLDGRGRPLPEPYEASRDLAQAPDMQGGHAVLIASEEQFKVFTLPKVSAKTKFKLTAHEGCRVRKVALATFASVACEDYAETCLACLTNLGDVHVFSVPGLRPQVHYSCIRKEDISGIASCVFTRHGQGFYLISPSEFERFSLSARNITEPLCSLDINWPRDATQASYRIRESPKLSQANGTPSILLAPQSLDGSPDPAHSMGPDTPEPPEAALSPMSIDSATSADTTLDTTGDVTVEDVKDFLGSSEESEKNLRNLAEDEAHACAILIK
# B4: Gamma-adducin (protein, UniProt Q9UEY8-1 1-706)
# chain: MSSDASQGVITTPPPPSMPHKERYFDRINENDPEYIRERNMSPDLRQDFNMMEQRKRVTQILQSPAFREDLECLIQEQMKKGHNPTGLLALQQIADYIMANSFSGFSSPPLSLGMVTPINDLPGADTSSYVKGEKLTRCKLASLYRLVDLFGWAHLANTYISVRISKEQDHIIIIPRGLSFSEATASNLVKVNIIGEVVDQGSTNLKIDHTGFSPHAAIYSTRPDVKCVIHIHTLATAAVSSMKCGILPISQESLLLGDVAYYDYQGSLEEQEERIQLQKVLGPSCKVLVLRNHGVVALGETLEEAFHYIFNVQLACEIQVQALAGAGGVDNLHVLDFQKYKAFTYTVAASGGGGVNMGSHQKWKVGEIEFEGLMRTLDNLGYRTGYAYRHPLIREKPRHKSDVEIPATVTAFSFEDDTVPLSPLKYMAQRQQREKTRWLNSPNTYMKVNVPEESRNGETSPRTKITWMKAEDSSKVSGGTPIKIEDPNQFVPLNTNPNEVLEKRNKIREQNRYDLKTAGPQSQLLAGIVVDKPPSTMQFEDDDHGPPAPPNPFSHLTEGELEEYKRTIERKQQGLEDAEQELLSDDASSVSQIQSQTQSPQNVPEKLEENHELFSKSFISMEVPVMVVNGKDDMHDVEDELAKRVSRLSTSTTIENIEITIKSPEKIEEVLSPEGSPSKSPSKKKKKFRTPSFLKKNKKKEKVEA
# B5: Lipolysis-stimulated lipoprotein receptor (protein, UniProt Q86X29-1 1-649)
# chain: MQQDGLGVGTRNGSGKGRSVHPSWPWCAPRPLRYFGRDARARRAQTAAMALLAGGLSRGLGSHPAAAGRDAVVFVWLLLSTWCTAPARAIQVTVSNPYHVVILFQPVTLPCTYQMTSTPTQPIVIWKYKSFCRDRIADAFSPASVDNQLNAQLAAGNPGYNPYVECQDSVRTVRVVATKQGNAVTLGDYYQGRRITITGNADLTFDQTAWGDSGVYYCSVVSAQDLQGNNEAYAELIVLGRTSGVAELLPGFQAGPIEDWLFVVVVCLAAFLIFLLLGICWCQCCPHTCCCYVRCPCCPDKCCCPEALYAAGKAATSGVPSIYAPSTYAHLSPAKTPPPPAMIPMGPAYNGYPGGYPGDVDRSSSAGGQGSYVPLLRDTDSSVASEVRSGYRIQASQQDDSMRVLYYMEKELANFDPSRPGPPSGRVERAMSEVTSLHEDDWRSRPSRGPALTPIRDEEWGGHSPRSPRGWDQEPAREQAGGGWRARRPRARSVDALDDLTPPSTAESGSRSPTSNGGRSRAYMPPRSRSRDDLYDQDDSRDFPRSRDPHYDDFRSRERPPADPRSHHHRTRDPRDNGSRSGDLPYDGRLLEEAVRKKGSEERRRPHKEEEEEAYYPPAPPPYSETDSQASRERRLKKNLALSRESLVV
# Target: LRRC8A-BirA*-HA fusion protein (human) (UniProt Q8IWT6)
# Assay: proximity labelling; BioID: HEK293 cells stably expressing LRRC8A-BirA*-HA (two clones), 50 uM biotin 24 h, RIPA lysis, streptavidin bead pull-down of biotinylated proteins, TMT labelling and LC-MS/MS; hits: FDR <= 0.05 and fold change >= 2 against the no-biotin control
row,Binder,binding
1,B1,binds
2,B2,binds
3,B3,binds
4,B4,binds
5,B5,binds
